Measured values: PubChem BioAssay AID2417 (National Center for Advancing Translational Sciences (NCATS), 2010)
In all, about 140,000 compounds went through this assay and about 4,300 (3.1%) were called active. The shares of active, inactive and inconclusive entries below differ from those in the screen.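 Rule for the calls: active = readout at or below -70, meaning at least 70% loss of cells showing the perinucleolar compartment, a nuclear body marking cancer cells; inconclusive = readout between -30 and a set limit; inactive = the rest.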

assay: High Content Assay for Compounds that inhibit the Assembly of the Perinucleolar Compartment; conditions: PC3M PTB-GFP, PNC prevalence imaging, 16 h; at 10 µM; active compounds read low;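 note: plate controls were DMSO wells for no effect and camptothecin positive control wells for full effect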
Summary of the method: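 Compounds are pinned in duplicate onto adhered PC3M cells stably expressing GFP-tagged PTB and incubated 16 h at 37 C. Cells are then fixed, nuclei stained with Hoechst, and PNC-positive cells counted.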

Row | SMILES | activity change (PNC), negative = inhibition
1 | Cc1ccc(NC2OC(CO)C(O)C(O)C2O)cc1 (configuration not stated) | inconclusive: -44.7%
2 | Cc1[nH]nc2c1C(c1ccccc1F)NC2=O (configuration not stated) | active: -103%
3 | COCCN(C(=O)COc1ccc(Cl)cc1)c1nnc(-c2cccnc2)s1 | active: -100%
4 | O=c1[nH]cnc2c1oc1ccccc12 | inconclusive: -40.3%
5 | COC(=O)c1cn(NC(=O)c2cccnc2)c(=O)c2ccccc12 | inactive: 11.9%
6 | CNC(=O)COc1ccc(C=O)cc1OC | inconclusive: -33.2%
7 | COC(=O)CCC(=O)Nc1sc2c(c1C#N)CCCC2 | inconclusive: -31.6%
8 | O=C(Cc1ccccc1)NN1C(=O)C2C3C=CC(C3)C2C1=O (configuration not stated) | inconclusive: -38.3%
9 | CC(C)(C)c1nc(NCCN2CCOCC2)c2nnn(Cc3ccccc3Cl)c2n1 | inactive: -15.5%
10 | CCOc1ccc(OCC)c(NC(=O)c2ccc(CNc3c(N4CCOCC4)c(=O)c3=O)cc2)c1 | inconclusive: -54.6%
11 | Cc1cc(C)nc(SCCC(=O)N(C)C)n1 | inactive: 21.2%
12 | O=C(Oc1c(Cl)cc(Cl)c2cccnc12)c1cccc([N+](=O)[O-])c1 | inactive: -0.856%
13 | CN1C2C=C3C(C#N)=C(N)C(C#N)(C#N)[C@@H](c4ccc(Cl)cc4)[C@@H]3C1CC2 (some centres not stated) | inconclusive: -34.6%
14 | CC(C)NC(=O)COc1ncnc2sccc12 | inconclusive: -48.2%
15 | Fc1ccc2c(c1)C(c1ccncc1)=NNC(c1cccnc1)=N2 | inactive: 39%
16 | COc1ccc(NC(=O)CSc2nnc(CCC(=O)Nc3ccc(C)c(Cl)c3)n2C)cc1 | inconclusive: -40.3%
17 | Cc1ccc(C(=O)NC(=S)Nc2ccc(S(=O)(=O)N3CCN(C)CC3)cc2)cc1 | inactive: 19.8%
18 | CCc1cc2c3c(c1)C1(C(=O)N3C(C)(C)CC2C)C(C#N)=C(N)N2C(=C1C#N)Nc1ccccc12 (configuration not stated) | inconclusive: -39.2%
19 | Cc1cccc(N(C)c2cc(C)nc3nc(C)nn23)c1 | inconclusive: -32.8%

A draw from above in order of formula weight, falling:
Row | SMILES | activity change (PNC), negative = inhibition
10 | CCOc1ccc(OCC)c(NC(=O)c2ccc(CNc3c(N4CCOCC4)c(=O)c3=O)cc2)c1 | inconclusive: -54.6%
13 | CN1C2C=C3C(C#N)=C(N)C(C#N)(C#N)[C@@H](c4ccc(Cl)cc4)[C@@H]3C1CC2 (some centres not stated) | inconclusive: -34.6%
15 | Fc1ccc2c(c1)C(c1ccncc1)=NNC(c1cccnc1)=N2 | inactive: 39%
7 | COC(=O)CCC(=O)Nc1sc2c(c1C#N)CCCC2 | inconclusive: -31.6%
1 | Cc1ccc(NC2OC(CO)C(O)C(O)C2O)cc1 (configuration not stated) | inconclusive: -44.7%

(continued)

Row | SMILES | activity change (PNC), negative = inhibition
20 | Cc1ccc(SCCC(=O)N2CCOCC2)cc1 | inconclusive: -39.1%
21 | Cc1ccc(NC(=O)CSC2=C(C#N)C(c3ccc4c(c3)OCO4)C3=C(CCCC3=O)N2)c(C)c1 (configuration not stated) | inactive: 12.2%
22 | CC(C)CNC(=O)COC(=O)c1cncc(Br)c1 | inconclusive: -38.9%
23 | COc1ccccc1NC(=O)CSCc1nc2ccccc2[nH]1 | inactive: 14.5%
24 | CC(=O)c1ccc(Oc2ccc(C(=O)c3ccc(C)c(C)c3)cc2[N+](=O)[O-])cc1 | inconclusive: -66.4%
25 | Fc1cc(F)c2nc(Nc3nc4cc5c(cc4s3)OCO5)sc2c1 | inactive: 19.4%
26 | O=c1ccc(Cc2ccccn2)n[nH]1 | inconclusive: -30.8%
27 | COc1ccccc1CN1C(=O)[C@@H]2C(CC(N)=O)NC3(C(=O)Nc4c3ccc(Cl)c4C)[C@@H]2C1=O (some centres not stated) | inactive: 4.75%
28 | CCCCCn1c(SC(C)C(C)=O)nc2c1c(=O)[nH]c(=O)n2C (configuration not stated) | inactive: 8.78%
29 | CC1=Nc2ccccc2/C1=C\c1nc(-c2ccc(F)cc2)oc1O | inactive: 57.1%
30 | Cn1c(=O)c2c(nc(SCC(=O)N3CCc4ccccc4C3)n2C)n(C)c1=O | inconclusive: -37.2%
31 | CC(=O)Nc1ccc(SCC(=O)c2cc(C)n(-c3ccccc3F)c2C)cc1 | inconclusive: -50.6%
32 | CC(C)c1ccc(NC(=O)CN(Cc2ccccc2)S(C)(=O)=O)cc1 | inconclusive: -38.1%
33 | Cc1sc(-n2c(C)cc(/C=N/n3cnnc3)c2C)c(C#N)c1C | inactive: 7.68%
34 | COC(=O)C1=C(C)NC2=C(C(=O)CCC2)C1c1cccs1 (configuration not stated) | inconclusive: -56.9%
35 | CCc1ccc(OCc2ccc(C(=O)NCc3ccccn3)o2)cc1 | inconclusive: -49%
36 | O=C(CN1C(=O)S/C(=C/c2cc(Br)cs2)C1=O)N1CCOCC1 | inactive: 48.5%
37 | Cc1cc(NC2CCCCC2)nc(-c2ccccc2O)n1 | inactive: 17.2%
38 | COc1ccc2nc(NC(=O)CSc3ccccc3)sc2c1 | inconclusive: -37.1%

Row | SMILES | activity change (PNC), negative = inhibition
39 | COCCNC(=O)c1cc(-c2cccnc2)nc2ccc(Br)cc12 | inconclusive: -57.3%
40 | Cc1c(C(=O)Nc2ccccc2C(=O)N2CCOCC2)cccc1[N+](=O)[O-] | inconclusive: -31.2%
41 | Cc1noc(C)c1CSc1nnc2scc(-c3ccc(Cl)cc3)n12 | inconclusive: -34.5%
42 | CCOC(=O)c1cc2c(C)n(-c3ccc(C)cc3)c(C)c2ccc1=O | inconclusive: -40.6%
43 | COCCNC(=S)Nc1ccc2nc(N3CCCC3)cc(C)c2c1 | inactive: 8.81%
44 | COCCCn1c(SCC(=O)OC2CCCCC2)nnc1-c1ccco1 | inactive: 4.95%
45 | COc1ccc(N(Cc2cc3cccc(C)c3[nH]c2=O)S(C)(=O)=O)cc1 | inconclusive: -51.6%
46 | CCCCOc1cccc(C(=O)NC(=S)Nc2cccc(NC(=O)c3ccccc3Cl)c2)c1 | inactive: -10%
47 | O=C(CSc1nnc(-c2ccccc2)n1-c1ccc(Cl)cc1)N/N=C/c1ccco1 | inconclusive: -34.4%
48 | CSc1c(SCc2ccccc2)cnn(-c2ccccc2)c1=O | inconclusive: -52.2%
49 | COc1ccccc1N1CCN(C(=O)CSc2nc3ccccc3[nH]2)CC1 | inconclusive: -54.4%
50 | Cc1ccc(S(=O)(=O)NNC(=O)c2sccc2-n2cccc2)cc1 | inconclusive: -30.4%
51 | COc1ccc(C2=NN(CCC(=O)NCc3ccc4c(c3)OCO4)C(=O)CC2)cc1 | inconclusive: -47.6%
52 | COc1ccc(O)c(/C=N\NC(=O)CCn2nnc3ccccc32)c1 | inconclusive: -76.8%
53 | CCC(=O)Nc1ccc(C(=O)CSc2nnc(-c3ccccc3F)n2C2CC2)cc1 | inconclusive: -42.9%
54 | CCOC(=O)c1ccc2c(c1)nc(SC/C(O)=C(\C#N)c1nc3ccccc3[nH]1)n2CC | inconclusive: -45.1%
55 | O=C(CSCCSCC(=O)c1ccco1)c1ccco1 | inconclusive: -33.6%
56 | COc1ccccc1NCc1ccc([N+](=O)[O-])s1 | inconclusive: -41%
57 | CC(=O)c1cc(-c2ccccc2)n(CCC(=O)NC2CCC(C)CC2)c1C (configuration not stated) | inconclusive: -65.6%
